# Reference: PubChem BioAssay AID1117319 (Southern Research Institute, 2015)
# The chains behind the UniProt entries cited, without tags or fusion partners. Where a name states a change or a piece, a line headed by the entry shows the natural chain unless it says otherwise.
# UniProt P69720: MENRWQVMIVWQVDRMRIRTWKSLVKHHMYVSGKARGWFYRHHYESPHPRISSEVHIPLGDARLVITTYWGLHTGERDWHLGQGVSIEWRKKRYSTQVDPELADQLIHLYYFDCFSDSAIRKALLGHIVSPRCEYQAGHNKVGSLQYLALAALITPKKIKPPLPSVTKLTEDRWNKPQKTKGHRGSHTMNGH
# UniProt P69721: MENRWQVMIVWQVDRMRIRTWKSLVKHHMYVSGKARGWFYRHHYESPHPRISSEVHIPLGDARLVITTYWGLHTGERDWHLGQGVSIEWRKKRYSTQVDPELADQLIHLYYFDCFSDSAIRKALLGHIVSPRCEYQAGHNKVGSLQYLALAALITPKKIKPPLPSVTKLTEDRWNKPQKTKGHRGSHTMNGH
# UniProt P69722: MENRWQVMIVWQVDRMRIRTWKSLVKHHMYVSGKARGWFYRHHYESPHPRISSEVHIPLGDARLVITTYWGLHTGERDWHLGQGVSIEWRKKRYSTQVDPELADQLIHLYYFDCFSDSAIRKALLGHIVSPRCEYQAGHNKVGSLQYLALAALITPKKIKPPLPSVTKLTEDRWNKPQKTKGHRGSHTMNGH
# UniProt P69723: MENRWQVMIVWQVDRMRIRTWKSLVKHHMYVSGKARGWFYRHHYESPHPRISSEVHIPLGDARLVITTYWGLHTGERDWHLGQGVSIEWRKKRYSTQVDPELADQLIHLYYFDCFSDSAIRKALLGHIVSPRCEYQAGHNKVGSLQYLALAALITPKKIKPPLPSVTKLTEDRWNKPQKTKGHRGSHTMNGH
# UniProt Q9HC16: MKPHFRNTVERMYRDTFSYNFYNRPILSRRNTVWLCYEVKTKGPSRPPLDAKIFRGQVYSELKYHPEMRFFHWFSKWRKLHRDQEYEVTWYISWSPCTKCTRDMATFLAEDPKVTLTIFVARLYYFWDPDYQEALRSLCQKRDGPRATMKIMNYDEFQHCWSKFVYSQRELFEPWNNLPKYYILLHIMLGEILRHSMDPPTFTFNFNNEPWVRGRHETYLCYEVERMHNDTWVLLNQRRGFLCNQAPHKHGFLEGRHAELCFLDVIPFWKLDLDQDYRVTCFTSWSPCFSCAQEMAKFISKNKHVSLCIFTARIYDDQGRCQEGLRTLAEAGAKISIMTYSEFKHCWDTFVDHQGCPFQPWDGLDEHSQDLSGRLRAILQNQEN
# The whole screen tested about 260,000 compounds, of which about 1,500 (0.58%) were called active. Inconclusive results, whose numbers are uncertain, are shown with a selection of clear calls.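 How the source made its calls: active means inhibition above a set limit at one or more doses, reproduced on every date tested; inconclusive means results disagree between test dates, or hit never tested in dose response; inactive means the rest.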
# Biological target: Virion infectivity factor (Human immunodeficiency virus type 1 group M subtype B (isolate BH10)) + Virion infectivity factor (Human immunodeficiency virus type 1 group M subtype B (isolate BRU/LAI)) + Virion infectivity factor (Human immunodeficiency virus type 1 group M subtype B (isolate PCV12)) + Virion infectivity factor (Human immunodeficiency virus type 1 group M subtype B (isolate HXB2)) + DNA dC->dU-editing enzyme APOBEC-3G (Homo sapiens) (UniProt P69720+P69721+P69722+P69723+Q9HC16)
# Assay: inhibitors of Vif binding to APOBEC3G peptide, primary screen, biochemical, TR-FRET, GST-Vif 1-94, biotin-A3G peptide, dose response retest (AID 1117319);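 further: Vif residues 1-94 fused to GST binding biotinylated APOBEC3G peptide 110-148; 0% = full assay without inhibitor and 100% = GST in place of GST-Vif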
# Settings: stronger effect = higher value
row,SMILES,inhibition
1,CCOC(=O)N1CCC(=NNc2ccc(S(N)(=O)=O)cc2[N+](=O)[O-])CC1,inconclusive: 38%
2,O=C(COC(=O)C1CCN(S(=O)(=O)c2cccc3cccnc23)CC1)c1ccccc1,inconclusive: 40.8%
3,CS(=O)(=O)N1CCCC(C(=O)Nc2ccc(F)cc2F)C1 (stereo unspecified),inconclusive: 41.6%
4,CC1CCCCC1NC(=O)COC(=O)c1ccc2ccccc2n1 (stereo unspecified),inactive: -3.73%
5,O=C(Nc1ccccn1)c1ccc2c(c1)OCCO2,inconclusive: 51%
6,COc1ccc(NC(=S)NCCCN2CCN(C3CCCCC3)CC2)cc1,inconclusive: 33.3%
7,CC1CCCN(C(=O)C2CCN(c3nc(-c4ccccc4)nc4c3CCC4)CC2)C1 (stereo unspecified),inconclusive: 40.2%
8,CCCCC(=O)Nc1nc(C)c(-c2csc(Nc3ccc(Cl)cc3)n2)s1,inconclusive: 55.6%
9,COc1cc(C(=O)Nc2sc3c(c2C#N)CCN(C(C)=O)C3)cc(OC)c1OC,inconclusive: 31.9%
10,COc1cc2c(cc1OC)C1=C(C#N)COCN1CC2,inconclusive: 37.4%
11,S=c1[nH]nc(-c2cccnc2)n1/N=C/C(Cl)=C\c1ccccc1,inconclusive: 43.5%
12,Cc1ccc(S(=O)(=O)NC(C)C(c2cccs2)N2CCN(C)CC2)cc1 (stereo unspecified),inconclusive: 37.3%
13,O=C(N/N=C/c1ccco1)c1cccc(N2Cc3ccccc3C2)c1,inconclusive: 62.3%
14,Cc1cccc(Cn2c(C(=O)OC(C)C)cc3c2ccn3C)c1,inconclusive: 61%
15,NC(=O)CSc1nnc(NC(=O)c2ccc(Br)o2)s1,inconclusive: 50.6%
16,C/C(=N/NC(=O)CNC(=O)/C=C/c1ccccc1)c1ccco1,inconclusive: 37%
17,O=c1c(-c2nc3ccccc3s2)cccn1Cc1ccc(Cl)cc1,inconclusive: 57.8%
18,Cc1ccc(C)c(N2CCN(C(=O)c3cc4ccccn4n3)CC2)c1,inconclusive: 45%
19,COc1ccccc1C1CCN(Cc2ccc(Cl)c(Cl)c2)CC1,inactive: -7.3%
20,Cc1ccc(CSC2=Nc3ccccc3C3=NC(CCC(=O)NCc4ccco4)C(=O)N23)cc1 (stereo unspecified),inconclusive: 34%
21,CC1(C)N=C(N)N=C(N)N1c1ccc(F)cc1F,inconclusive: 44.2%
22,Cc1ccn2cc(CC(=O)O)nc2c1,inconclusive: 47.4%
23,O=C(NCCO)C1COc2ccccc2O1 (stereo unspecified),inactive: -2.17%
24,O=C(Cn1ncc2c(=O)oc3ccccc3c21)NCCc1ccsc1,inactive: -2.92%
25,CCOC(=O)c1ccc2nc(C)c(CCC(C)=O)c(Cl)c2c1,inconclusive: 46.5%
26,CCn1cc(CNCc2cn[nH]c2-c2cc3ccccc3o2)cn1,inconclusive: 61.3%

# Part of the list above in order of count of non-hydrogen atoms, rising:
row,SMILES,inhibition
15,NC(=O)CSc1nnc(NC(=O)c2ccc(Br)o2)s1,inconclusive: 50.6%
19,COc1ccccc1C1CCN(Cc2ccc(Cl)c(Cl)c2)CC1,inactive: -7.3%
26,CCn1cc(CNCc2cn[nH]c2-c2cc3ccccc3o2)cn1,inconclusive: 61.3%
